These are yes or no findings as the source states them, for the method shown. In cells and extracts the contact can be indirect. Some results given as binding are weak or reduced against the parent protein; the word gives no strength. Sequences can lack the tags named with a protein.
Molecular target: T1, Mtb DNA Pol III β2 clamp, endogenous in Mtb H37Rv (Mycobacterium tuberculosis (endogenous in Mtb H37Rv)) (UniProt P9WNU1)
T1 sequence: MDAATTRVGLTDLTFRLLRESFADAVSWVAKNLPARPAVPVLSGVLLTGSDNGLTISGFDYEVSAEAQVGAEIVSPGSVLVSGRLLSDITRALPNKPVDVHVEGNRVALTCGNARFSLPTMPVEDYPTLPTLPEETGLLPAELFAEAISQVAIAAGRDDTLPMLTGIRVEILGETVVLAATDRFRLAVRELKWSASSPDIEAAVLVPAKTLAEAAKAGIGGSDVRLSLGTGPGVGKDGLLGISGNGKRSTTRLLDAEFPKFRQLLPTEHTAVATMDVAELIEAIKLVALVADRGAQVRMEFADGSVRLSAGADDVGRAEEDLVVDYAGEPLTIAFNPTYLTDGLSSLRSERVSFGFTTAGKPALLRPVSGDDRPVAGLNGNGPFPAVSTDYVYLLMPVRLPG
Assay: co-IP

B1: Mtb DNA Pol III α subunit, endogenous in Mtb H37Rv (enzyme, UniProt P9WNT7 1-1184)
chain: MSGSSAGSSFVHLHNHTEYSMLDGAAKITPMLAEVERLGMPAVGMTDHGNMFGASEFYNSATKAGIKPIIGVEAYIAPGSRFDTRRILWGDPSQKADDVSGSGSYTHLTMMAENATGLRNLFKLSSHASFEGQLSKWSRMDAELIAEHAEGIIITTGCPSGEVQTRLRLGQDREALEAAAKWREIVGPDNYFLELMDHGLTIERRVRDGLLEIGRALNIPPLATNDCHYVTRDAAHNHEALLCVQTGKTLSDPNRFKFDGDGYYLKSAAEMRQIWDDEVPGACDSTLLIAERVQSYADVWTPRDRMPVFPVPDGHDQASWLRHEVDAGLRRRFPAGPPDGYRERAAYEIDVICSKGFPSYFLIVADLISYARSAGIRVGPGRGSAAGSLVAYALGITDIDPIPHGLLFERFLNPERTSMPDIDIDFDDRRRGEMVRYAADKWGHDRVAQVITFGTIKTKAALKDSARIHYGQPGFAIADRITKALPPAIMAKDIPLSGITDPSHERYKEAAEVRGLIETDPDVRTIYQTARGLEGLIRNAGVHACAVIMSSEPLTEAIPLWKRPQDGAIITGWDYPACEAIGLLKMDFLGLRNLTIIGDAIDNVRANRGIDLDLESVPLDDKATYELLGRGDTLGVFQLDGGPMRDLLRRMQPTGFEDVVAVIALYRPGPMGMNAHNDYADRKNNRQAIKPIHPELEEPLREILAETYGLIVYQEQIMRIAQKVASYSLARADILRKAMGKKKREVLEKEFEGFSDGMQANGFSPAAIKALWDTILPFADYAFNKSHAAGYGMVSYWTAYLKANYPAEYMAGLLTSVGDDKDKAAVYLADCRKLGITVLPPDVNESGLNFASVGQDIRYGLGAVRNVGANVVGSLLQTRNDKGKFTDFSDYLNKIDISACNKKVTESLIKAGAFDSLGHARKGLFLVHSDAVDSVLGTKKAEALGQFDLFGSNDDGTGTADPVFTIKVPDDEWEDKHKLALEREMLGLYVSGHPLNGVAHLLAAQVDTAIPAILDGDVPNDAQVRVGGILASVNRRVNKNGMPWASAQLEDLTGGIEVMFFPHTYSSYGADIVDDAVVLVNAKVAVRDDRIALIANDLTVPDFSNAEVERPLAVSLPTRQCTFDKVSALKQVLARHPGTSQVHLRLISGDRITTLALDQSLRVTPSPALMGDLKELLGPGCLGS
binding: binds

— article PMC4731781, “The β2 clamp in the Mycobacterium tuberculosis DNA polymerase III αβ2ε replicase promotes polymerization and reduces exonuclease activity” (Scientific Reports, 2016)
